Assay results taken from paper PMC7819943, “Rice protein-binding microarrays: a tool to detect cis-acting elements near promoter regions in rice”.
Some of the results follow.

These sequences were tested against T1, OsSMF1 (Oryza sativa, UniProt Q6ZLB0 1-436) (assay: protein-binding microarray (RPBM); PBS, 2% BSA, 51.3 ng/ul salmon testes DNA, 50 uM zinc acetate, 200 nM TF, 25 C, 1 h; high values mean tight binding). Conditions: protein: recombinant; tags: N-terminal polyhistidine and DsRed monomer fusion (pET32a); chain copies: 2; label: CyDye5-dUTP incorporated in the synthesized complementary strand; 3' TTTTT single-stranded linker to array surface; dsDNA, one strand shown.
T1 sequence: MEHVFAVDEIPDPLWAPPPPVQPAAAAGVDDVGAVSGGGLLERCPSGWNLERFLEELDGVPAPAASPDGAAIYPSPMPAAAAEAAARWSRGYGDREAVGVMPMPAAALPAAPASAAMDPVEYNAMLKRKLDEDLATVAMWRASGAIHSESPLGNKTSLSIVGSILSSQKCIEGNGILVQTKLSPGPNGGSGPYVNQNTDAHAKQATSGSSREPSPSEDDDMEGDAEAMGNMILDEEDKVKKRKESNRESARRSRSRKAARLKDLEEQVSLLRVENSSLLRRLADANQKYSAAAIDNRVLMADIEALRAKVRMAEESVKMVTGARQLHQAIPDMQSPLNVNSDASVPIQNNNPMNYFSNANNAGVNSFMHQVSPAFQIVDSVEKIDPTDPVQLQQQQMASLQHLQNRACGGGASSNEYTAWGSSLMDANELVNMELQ
Method in brief: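 Binding signal is defined as the fluorescence intensity of each feature in arbitrary units, read on an Axon 4000B scanner. Transcription factors with N-terminal polyhistidine and DsRed fusions came from E. coli BL21-CodonPlus and were purified on Ni–NTA. They were incubated at 200 nM for 1 h at 25 °C on a custom Agilent array that had been made double-stranded with Cy5-dUTP, with 50 µM zinc acetate present, and the array was washed.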
In the case of “GAGCATGGAGAGAGTATAATCCACGTGATCTGCAACCATCCGGAGTCACCTAGTGCAG”, the binding signal is reported as 3600 fluorescence intensity (a.u.). “CCTTGGTGAGTCACGGGACGTACACGTCAGCGGCGTGATCCGGAGTCACCTAGTGCAG” was tested, and the binding signal was 29900 fluorescence intensity (a.u.). With “GACTGCAATTCTGCAATCACCTACGTGTACTTGAACCGAACGGAGTCACCTAGTGCAG” the binding signal was 3590 fluorescence intensity (a.u.). “GGCGAGAGCGGCACGCCGTGGCATTGGACGAACACTCGTACGGAGTCACCTAGTGCAG” was tested, and the binding signal was 4050 fluorescence intensity (a.u.). In the case of “ACTTTAGCCGATATGAGTTTACCCTACCTTGGAATATCTACGGAGTCACCTAGTGCAG”, the binding signal is reported as 3800 fluorescence intensity (a.u.). “GCCGTCGCTGCTGCTCAAGGGCCTCGTCGCGTGCACCGGCCGGAGTCACCTAGTGCAG” was tested, and the binding signal was 3220 fluorescence intensity (a.u.). With “TCGCCCTCTCGTGACGTCATCCTCCCATCTATGGAAGACCCGGAGTCACCTAGTGCAG” the binding signal was 17300 fluorescence intensity (a.u.). In the case of “CGTCCGGTGACTGACGTACGTGGATATGTTTTCATTTGAACGGAGTCACCTAGTGCAG”, the binding signal is reported as 4930 fluorescence intensity (a.u.). For “CATGTATGACACATCAATTTGAAATCATGATGCATATGCACGGAGTCACCTAGTGCAG”, the binding signal was 6260 fluorescence intensity (a.u.). In the case of “ATTCATTAATATGTGAACTTTAGTAATGATGACACTACATCGGAGTCACCTAGTGCAG”, the binding signal is reported as 3860 fluorescence intensity (a.u.). For “GCTAGAAAATGTAGAGTGAGAGCAAAGTGTGATAAATGCACGGAGTCACCTAGTGCAG”, the binding signal was 4340 fluorescence intensity (a.u.). With “GGTGTGTGTATGTGTTTATATGGTGAGTGTACACACGTTGCGGAGTCACCTAGTGCAG” the binding signal was 3150 fluorescence intensity (a.u.). In the case of “TTAGCTGAATCGTCTTCGTTAGCAGTGAGAGTGACAGACGCGGAGTCACCTAGTGCAG”, the binding signal is reported as 3160 fluorescence intensity (a.u.). For “CCACTGGACCATAACTGGGCCCAGCACACAGAAACAAATCCGGAGTCACCTAGTGCAG”, the binding signal was 44700 fluorescence intensity (a.u.). In the case of “AAATGTCACATCGATGTCACGTGGAAATAATATCTAGTTACGGAGTCACCTAGTGCAG”, the binding signal is reported as 4810 fluorescence intensity (a.u.). For “GTAGCTCGTCGTCACTGCCCATAGTACTCTGGCTTAGCTACGGAGTCACCTAGTGCAG”, the binding signal was 4530 fluorescence intensity (a.u.). In the case of “ACGTGGGCGCGGGTAAGCCGTGGCGGGCGGTGACGATGGACGGAGTCACCTAGTGCAG”, the binding signal is reported as 3430 fluorescence intensity (a.u.). With “AGAACTTCAGACCGCTATGTCGACAATAGTTAGATAGGCTCGGAGTCACCTAGTGCAG” the binding signal was 3220 fluorescence intensity (a.u.). “TGAGTCTAATTAGTCCATGATTAGTCGTAAGTGCTACGATCGGAGTCACCTAGTGCAG” was tested, and the binding signal was 14800 fluorescence intensity (a.u.). In the case of “GTACGATCCAGCGGGGCAACTCTGACACGGGCCGCGCCACCGGAGTCACCTAGTGCAG”, the binding signal is reported as 3970 fluorescence intensity (a.u.). With “GGGACCTGGCGCCGCGCGGTCGTGTCGTCGTGGCTGCCTGCGGAGTCACCTAGTGCAG” the binding signal was 3900 fluorescence intensity (a.u.). With “ACAAGATGCAGGGGACTGATGAGTCATAAAGCTGATGAGCCGGAGTCACCTAGTGCAG” the binding signal was 8740 fluorescence intensity (a.u.). “TCGAGATGCCATGGTACTGTCTGACGTCGCCTTTGATTGTCGGAGTCACCTAGTGCAG” was tested, and the binding signal was 5060 fluorescence intensity (a.u.). With “AACTCCGAATTCCTCCTCCTCATCGCGTGATTCCGTTTTGCGGAGTCACCTAGTGCAG” the binding signal was 3510 fluorescence intensity (a.u.). For “CAGGGGCAGGTTTCTGCATGGTCGAGTCCAAGATGCACAACGGAGTCACCTAGTGCAG”, the binding signal was 24100 fluorescence intensity (a.u.). For “AAAGTTTTGCATGCCGCTGTCGAAGTCGGCTTCCGCGTAGCGGAGTCACCTAGTGCAG”, the binding signal was 32300 fluorescence intensity (a.u.). With “CTCTGTGCGCCAGTGGTGAAGAGGGTGTCGTGGCGGTGGGCGGAGTCACCTAGTGCAG” the binding signal was 5100 fluorescence intensity (a.u.). For “ATATAAAATTAGTTTTATTAAATCTAAATTGAATATATTTCGGAGTCACCTAGTGCAG”, the binding signal was 6750 fluorescence intensity (a.u.). “ATTATGGTAGCTTGCATCATGCATGTGCTCCTTAGTTATGCGGAGTCACCTAGTGCAG” was tested, and the binding signal was 4700 fluorescence intensity (a.u.). In the case of “TGGGAGCACGGTTGTCTGCCGATGACGTGACCGGCGTCAGCGGAGTCACCTAGTGCAG”, the binding signal is reported as 7980 fluorescence intensity (a.u.). In the case of “CTCTTGCATGAGTCTATCTATTGTCAGGTACCTTTGGAGCCGGAGTCACCTAGTGCAG”, the binding signal is reported as 4080 fluorescence intensity (a.u.). For “ATTCAGGCTCTCTTCCATCTCCTGGAAGTCCACATCAACGCGGAGTCACCTAGTGCAG”, the binding signal was 4660 fluorescence intensity (a.u.). In the case of “ATGTAGTACTAGGACACATCACATCCGGTACTAGGTTGCTCGGAGTCACCTAGTGCAG”, the binding signal is reported as 3390 fluorescence intensity (a.u.). In the case of “AAGATATATGTGTGTATGACAGGTAGGACCAGACAATAGACGGAGTCACCTAGTGCAG”, the binding signal is reported as 3210 fluorescence intensity (a.u.). For “CCCTCTCCTCCCGCACGCGCGCGTCGGCGCCACCACCGGGCGGAGTCACCTAGTGCAG”, the binding signal was 3240 fluorescence intensity (a.u.). In the case of “TTTAAAAGATAAACAACATGCACGTGTTCTCATCAGATGTCGGAGTCACCTAGTGCAG”, the binding signal is reported as 37100 fluorescence intensity (a.u.). In the case of “TACTTTAAGTACATGTATTAGTCAGCTGATATATACCTCACGGAGTCACCTAGTGCAG”, the binding signal is reported as 4310 fluorescence intensity (a.u.). For “AGGGAGGTCGCGCGTGTCAGACTATATTAGGTATTTCCCCCGGAGTCACCTAGTGCAG”, the binding signal was 3520 fluorescence intensity (a.u.). For “GTTCTGCTAATCTGTAATGTTTCTTTTGTTTGTCATATCTCGGAGTCACCTAGTGCAG”, the binding signal was 3610 fluorescence intensity (a.u.). “CTCCAACTTGTTCGGTTGTGTCACCCCGGTCTCTAAACTTCGGAGTCACCTAGTGCAG” was tested, and the binding signal was 3170 fluorescence intensity (a.u.). “CCACCGTCAGTGACTCGGCTTTGACGCACCATTCCGACCGCGGAGTCACCTAGTGCAG” was tested, and the binding signal was 6260 fluorescence intensity (a.u.). For “TAAACATATATGCATGGATGATGTCATGGAAACATGGATTCGGAGTCACCTAGTGCAG”, the binding signal was 4690 fluorescence intensity (a.u.).
